Results: US5356781A (Bioscience International, Inc., priority 1986, dated 1994)

Experiment: general procedure: Fmoc solid-phase peptide synthesis; polystyrene solid phase supports with acid-labile p-alkoxybenzyl alcohol C-terminal linker; hydroxybenzotriazole coupling
Settings: whole synthesis

**Q.** For CAPFD4 K, which isolated yield is on record?
**A.** The isolated yield was 35%.
